Key:
SB.msgc-1 [1] = experiment: AC50 for growth inhibition (viability) (log10 M); higher = less potent; conditions: SB.msgc-1 (sporadic gastric cancer)
How it was run: (§1)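 Hereditary or sporadic patient-derived gastric cancer cells (500 cells in 5 μL medium per 1536 well) received 23 nL compound in DMSO by pintool. Dosing was 11 threefold dilutions starting at a final 46 μM. After 48 h, CellTiter-Glo was added for 30 min at room temperature and luminescence read on a ViewLux. Log half-maximal activity concentration came from a four-parameter fit of DMSO-normalised viability, keeping only high-quality curve classes.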

SB.mhdgc-1 [2] = experiment: as above; conditions: SB.mhdgc-1 (hereditary c.1380delA CDH1 gastric cancer)
How it was run: as §1

SB.msgc-1 [3] = experiment: area under the dose-response curve of % viability (trapezoidal, 11 doses) (% viability x log10 concentration); higher = less cytotoxic; conditions: SB.msgc-1 (sporadic gastric cancer)
How it was run: (§2)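 Reported here is DMSO-normalised viability, either at the highest concentration or as a trapezoidal area under the curve. Hereditary or sporadic patient-derived gastric cancer cells received compound by pintool at 11 threefold-diluted concentrations and were read with CellTiter-Glo after 48 h.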

SB.mhdgc-1 [4] = experiment: as above; conditions: SB.mhdgc-1 (hereditary c.1380delA CDH1 gastric cancer)
How it was run: as §2

SB.msgc-1 [5] = experiment: viability at highest tested concentration (MAXR) relative to DMSO; higher = less cytotoxic; conditions: SB.msgc-1 (sporadic gastric cancer)
How it was run: as §2

SB.mhdgc-1 [6] = experiment: as above; conditions: SB.mhdgc-1 (hereditary c.1380delA CDH1 gastric cancer)
How it was run: as §2

**Q.** `CC1=C(C=CC=C1)N2C(=O)C3=C(C=CC=C3C)\N=C2\C[N]4N=C(C5=CC(=CC=C5)O)C6=C(N)N=CN=C46` [PIK-294] was tested. Which “AC50 for growth inhibition (log10 M)” value (SB.msgc-1 [1]) did it give?
**A.** -7.03

**Q.** What about the “AC50 for growth inhibition (log10 M)” value (SB.mhdgc-1 [2]) of the same compound?
**A.** -5.53

**Q.** Which results are given for `CC1=C(C=CC=C1)N2C(=O)C3=C(C=CC=C3C)\N=C2\C[N]4N=C(C5=CC(=CC=C5)O)C6=C(N)N=CN=C46` [PIK-294] (top concentration 46.0829 µM)?
**A.** area under the dose-response curve (SB.msgc-1 [3]): 307; area under the dose-response curve (SB.mhdgc-1 [4]): 370; viability (SB.msgc-1 [5]): 23%; viability (SB.mhdgc-1 [6]): 21.1%

**Q.** How did the “area under the dose-response curve” value (SB.msgc-1 [3]) turn out when `COC(=O)[C@H](CCCNC(=N)N)N[S+](=O)([O-])c1ccc(C)cc1` [TAME] (top concentration 46.0829 µM) was run?
**A.** 532

**Q.** What about the “area under the dose-response curve” value (SB.mhdgc-1 [4]) of the same compound?
**A.** 492

**Q.** And the viability (SB.msgc-1 [5])?
**A.** 102%

**Q.** And the viability (SB.mhdgc-1 [6])?
**A.** 92.5%

— the supplement of paper PMC5412046
